Results are given in words; binding and its absence hold for the method and conditions named. In cells and extracts the contact can be indirect. Some results given as binding are weak or reduced against the parent protein; the word gives no strength.

The chains behind the UniProt entries cited, without tags or fusion partners.
UniProt Q9Z2V6: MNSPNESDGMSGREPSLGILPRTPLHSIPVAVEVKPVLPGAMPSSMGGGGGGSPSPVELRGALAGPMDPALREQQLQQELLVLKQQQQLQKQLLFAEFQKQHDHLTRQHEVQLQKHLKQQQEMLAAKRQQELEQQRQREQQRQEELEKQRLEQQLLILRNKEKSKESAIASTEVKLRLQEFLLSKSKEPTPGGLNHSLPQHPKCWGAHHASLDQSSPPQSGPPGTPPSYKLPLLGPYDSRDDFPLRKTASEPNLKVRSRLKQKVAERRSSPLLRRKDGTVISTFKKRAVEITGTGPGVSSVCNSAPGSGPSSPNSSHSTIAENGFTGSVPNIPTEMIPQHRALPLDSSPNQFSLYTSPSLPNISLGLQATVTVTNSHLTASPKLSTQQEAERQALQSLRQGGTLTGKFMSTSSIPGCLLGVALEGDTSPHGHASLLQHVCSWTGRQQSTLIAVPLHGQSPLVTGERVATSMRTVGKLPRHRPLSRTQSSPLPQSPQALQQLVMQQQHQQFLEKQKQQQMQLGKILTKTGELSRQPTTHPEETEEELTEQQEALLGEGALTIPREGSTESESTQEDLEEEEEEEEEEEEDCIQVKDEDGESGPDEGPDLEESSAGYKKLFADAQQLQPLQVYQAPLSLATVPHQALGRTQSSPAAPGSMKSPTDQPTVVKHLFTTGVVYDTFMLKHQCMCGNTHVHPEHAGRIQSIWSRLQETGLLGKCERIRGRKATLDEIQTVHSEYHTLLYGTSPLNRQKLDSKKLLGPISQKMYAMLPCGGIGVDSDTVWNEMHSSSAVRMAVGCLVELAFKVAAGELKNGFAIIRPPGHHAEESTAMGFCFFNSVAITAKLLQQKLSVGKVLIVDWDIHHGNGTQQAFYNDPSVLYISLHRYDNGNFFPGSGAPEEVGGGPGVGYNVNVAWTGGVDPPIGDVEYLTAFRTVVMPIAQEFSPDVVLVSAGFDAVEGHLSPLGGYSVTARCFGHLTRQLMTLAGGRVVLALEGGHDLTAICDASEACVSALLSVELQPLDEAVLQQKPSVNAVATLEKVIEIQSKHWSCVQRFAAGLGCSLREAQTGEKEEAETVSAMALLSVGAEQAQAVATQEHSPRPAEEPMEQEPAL
UniProt Q8CFN5: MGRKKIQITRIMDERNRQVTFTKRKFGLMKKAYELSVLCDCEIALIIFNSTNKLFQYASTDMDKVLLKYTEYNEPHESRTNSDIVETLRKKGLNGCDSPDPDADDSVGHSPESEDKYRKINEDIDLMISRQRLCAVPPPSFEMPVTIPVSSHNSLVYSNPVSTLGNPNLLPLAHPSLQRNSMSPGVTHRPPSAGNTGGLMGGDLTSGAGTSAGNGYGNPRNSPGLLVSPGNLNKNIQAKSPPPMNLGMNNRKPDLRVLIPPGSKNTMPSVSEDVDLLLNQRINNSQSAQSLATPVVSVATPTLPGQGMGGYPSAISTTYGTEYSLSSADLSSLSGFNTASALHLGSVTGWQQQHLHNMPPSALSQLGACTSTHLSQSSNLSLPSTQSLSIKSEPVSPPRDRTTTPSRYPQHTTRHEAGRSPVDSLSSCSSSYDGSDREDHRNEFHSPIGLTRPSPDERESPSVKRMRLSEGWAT

The target of this assay is Histone deacetylase 5 (mouse (endogenous in visual cortex)) (UniProt Q9Z2V6). Put plainly: co-IP; lysates of pooled visual cortex (four pairs, pups of the same dam; mice perfused as for Golgi-Cox staining; SC and EE rearing) in Pierce IP Lysis buffer, incubated with HDAC5 antibody overnight at 4°C, magnetic beads; immunoblot with anti-HDAC5 or anti-MEF2C. In general terms: A western blot detects proteins with antibodies after separation by electrophoresis.

With “myocyte enhancer-binding factor 2C (from UniProt Q8CFN5 1-474)”, the binding entry is listed as “binds”.

Source of the values: publication PMC7378308.
